According to paper PMC2656512:
Results are given in words; binding and its absence hold for the method and conditions named. Binding seen in cells or lysates may run through a third protein. Some entries that bind do so weakly or less than the wild type.

By UniProt entry, the sequences of proteins in these tests, tags left out. Residues count along the entry.
UniProt P16390: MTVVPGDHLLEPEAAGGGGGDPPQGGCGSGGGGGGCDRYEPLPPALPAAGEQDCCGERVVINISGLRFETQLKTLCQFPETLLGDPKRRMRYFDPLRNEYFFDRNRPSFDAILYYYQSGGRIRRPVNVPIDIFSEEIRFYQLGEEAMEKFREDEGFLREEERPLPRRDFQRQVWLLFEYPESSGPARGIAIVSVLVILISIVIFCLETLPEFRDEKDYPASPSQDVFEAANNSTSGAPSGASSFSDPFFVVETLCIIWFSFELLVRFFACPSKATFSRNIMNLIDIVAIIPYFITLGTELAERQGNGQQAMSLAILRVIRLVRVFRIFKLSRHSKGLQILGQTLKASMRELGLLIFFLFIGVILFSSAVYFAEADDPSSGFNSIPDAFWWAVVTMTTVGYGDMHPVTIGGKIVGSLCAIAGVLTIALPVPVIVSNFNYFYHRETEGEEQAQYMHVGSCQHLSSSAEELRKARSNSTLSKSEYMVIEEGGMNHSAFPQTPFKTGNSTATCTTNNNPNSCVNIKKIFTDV
UniProt P15384: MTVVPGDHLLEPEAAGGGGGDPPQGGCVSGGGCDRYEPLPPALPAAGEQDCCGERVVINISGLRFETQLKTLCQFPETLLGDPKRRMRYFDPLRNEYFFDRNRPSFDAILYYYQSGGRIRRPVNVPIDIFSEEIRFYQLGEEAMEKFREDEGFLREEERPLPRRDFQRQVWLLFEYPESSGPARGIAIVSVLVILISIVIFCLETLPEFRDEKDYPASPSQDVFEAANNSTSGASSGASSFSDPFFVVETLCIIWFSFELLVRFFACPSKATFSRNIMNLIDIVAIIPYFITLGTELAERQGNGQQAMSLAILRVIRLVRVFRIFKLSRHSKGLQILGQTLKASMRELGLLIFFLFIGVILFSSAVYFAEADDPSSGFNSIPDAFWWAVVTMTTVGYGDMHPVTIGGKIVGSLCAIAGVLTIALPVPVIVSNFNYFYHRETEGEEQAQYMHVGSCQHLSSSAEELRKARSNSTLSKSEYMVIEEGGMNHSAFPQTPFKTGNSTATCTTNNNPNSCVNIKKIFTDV
UniProt P15209, residues 32-821: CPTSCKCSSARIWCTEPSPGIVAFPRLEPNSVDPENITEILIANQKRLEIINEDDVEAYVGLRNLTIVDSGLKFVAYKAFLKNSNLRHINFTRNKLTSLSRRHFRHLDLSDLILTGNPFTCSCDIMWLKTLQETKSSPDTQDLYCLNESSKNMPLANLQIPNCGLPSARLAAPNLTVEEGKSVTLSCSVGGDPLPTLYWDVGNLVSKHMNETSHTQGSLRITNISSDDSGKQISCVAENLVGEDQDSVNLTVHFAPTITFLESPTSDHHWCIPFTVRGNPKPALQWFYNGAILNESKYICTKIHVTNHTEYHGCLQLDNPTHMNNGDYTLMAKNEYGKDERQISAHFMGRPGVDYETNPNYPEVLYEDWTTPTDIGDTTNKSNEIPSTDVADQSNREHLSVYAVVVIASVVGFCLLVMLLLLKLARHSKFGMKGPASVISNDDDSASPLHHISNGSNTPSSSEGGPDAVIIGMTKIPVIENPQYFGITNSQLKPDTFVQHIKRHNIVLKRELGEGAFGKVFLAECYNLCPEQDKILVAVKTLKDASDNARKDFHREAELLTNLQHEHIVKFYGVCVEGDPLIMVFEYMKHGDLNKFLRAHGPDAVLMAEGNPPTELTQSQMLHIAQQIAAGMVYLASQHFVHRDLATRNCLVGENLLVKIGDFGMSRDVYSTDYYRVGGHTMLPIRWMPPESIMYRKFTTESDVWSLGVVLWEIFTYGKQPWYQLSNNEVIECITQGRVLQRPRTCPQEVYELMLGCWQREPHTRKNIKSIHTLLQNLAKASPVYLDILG

How the values were obtained:
[1] = biological target: Kv1.3 channel, endogenous in mouse brain (mouse (endogenous in olfactory bulb and hippocampus)) (UniProt P16390); assay: co-IP; lysates of olfactory bulb or hippocampus of P20 C57BL/6 mice; IP with anti-Kv1.3 (AU13) or anti-TrkB, protein A-sepharose, Western blot with anti-TrkB, anti-Shc or anti-Grb10
myc-tagged Kv1.3 channel = myc-tagged Kv1.3 channel (UniProt P15384); assay: co-IP; HEK 293 cells transiently transfected with channel, kinase and adaptor cDNAs, stimulated with BDNF or vehicle for 10 minutes; lysis in 1% Triton X-100 buffer; IP with anti-myc (Kv1.3), anti-Grb10 or anti-TrkB, protein A-sepharose, Western blot; for nShc also with TrkB or Y490F TrkB (TrkBShc-) co-transfected
[2] = biological target: TrkB kinase, endogenous in mouse brain (mouse (endogenous in olfactory bulb and hippocampus)) (UniProt P15209); assay: co-IP; lysates of olfactory bulb or hippocampus of P20 C57BL/6 mice; IP with anti-Kv1.3 (AU13) or anti-TrkB, protein A-sepharose, Western blot with anti-TrkB, anti-Shc or anti-Grb10

Molecule	binding [1]	binding (myc-tagged Kv1.3 channel)	binding [2]
TrkB kinase, endogenous in mouse brain (from UniProt P15209 32-821) (receptor)	binds	–	–
neuronal Src homology and collagen (nShc), transfected (protein, UniProt Q92529 1-594) MLPRTKYNRFRNDSVTSVDDLLHSLSVSGGGGKVSAARATPAAAPYLVSGEALRKAPDDGPGSLGHLLHKVSHLKLSSSGLRGLSSAARERAGARLSGSCSAPSLAAPDGSAPSAPRAPAMSAARKGRPGDEPLPRPPRGAPHASDQVLGPGVTYVVKYLGCIEVLRSMRSLDFSTRTQITREAISRVCEAVPGAKGAFKKRKPPSKMLSSILGKSNLQFAGMSISLTISTASLNLRTPDSKQIIANHHMRSISFASGGDPDTTDYVAYVAKDPVNRRACHILECCDGLAQDVIGSIGQAFELRFKQYLQCPTKIPALHDRMQSLDEPWTEEEGDGSDHPYYNSIPSKMPPPGGFLDTRLKPRPHAPDTAQFAGKEQTYYQGRHLGDTFGEDWQQTPLRQGSSDIYSTPEGKLHVAPTGEAPTYVNTQQIPPQAWPAAVSSAESSPRKDLFDMKPFEDALKNQPLGPVLSKAASVECISPVSPRAPDAKMLEELQAETWYQGEMSRKEAEGLLEKDGDFLVRKSTTNPGSFVLTGMHNGQAKHLLLVDPEGTIRTKDRVFDSISHLINHHLESSLPIVSAGSELCLQQPVERKQ	–	binds	–
Grb10 adaptor protein, endogenous in mouse brain (protein, UniProt Q60760 1-621) MNNDINSSVESLNSACNMQSDTDTAPLLEDGQHASNQGAASSSRGQPQASPRQKMQRSQPVHILRRLQEEDQQLRTASLPAIPNPFPELTGAAPGSPPSVAPSSLPPPPSQPPAKHCGRCEKWIPGENTRGNGKRKIWRWQFPPGFQLSKLTRPGLWTKTTARFSKKQPKNQCPTDTVNPVARMPTSQMEKLRLRKDVKVFSEDGTSKVVEILTDMTARDLCQLLVYKSHCVDDNSWTLVEHHPQLGLERCLEDHEIVVQVESTMPSESKFLFRKNYAKYEFFKNPVNFFPDQMVNWCQQSNGGQAQLLQNFLNTSSCPEIQGFLQVKEVGRKSWKKLYVCLRRSGLYYSTKGTSKEPRHLQLLADLEESSIFYLIAGKKQYNAPNEHGMCIKPNKAKTEMKELRLLCAEDEQIRTCWMTAFRLLKYGMLLYQNYRIPQRKGLPPPFNAPMRSVSENSLVAMDFSGQIGRVIDNPAEAQSAALEEGHAWRKRSTRMNILSSQSPLHPSTLNAVIHRTQHWFHGRISREESHRIIKQQGLVDGLFLLRDSQSNPKAFVLTLCHHQKIKNFQILPCEDDGQTFFTLDDGNTKFSDLIQLVDFYQLNKGVLPCKLKHHCIRVAL	binds	–	binds
